# Measured values published in US10227290B2, “Glycosphingolipids for use in modulating immune responses” (The Regents of the University of California, priority 2012, dated 2019).
# At least one compound was matched to its structure with a doubt left.
# Key:
# liver NKT cells = experiment: In vivo activation of NKT cells by transfer of sphingolipid-pulsed BMDCs; parameters: species or system C57BL/6 mice
# Protocol: FIGS. 7A-7F illustrate that α-GalCerBf activates NKT cells in vivo. Bone marrow-derived dendritic cells (BMDCs) were pulsed in vitro with LPS only or LPS+α-GalCerBf for 24 hr. Then 0.4×10^6 cells were treated with control Ig or anti-CD1d blocking antibody and then transferred to WT mice. Liver mononuclear cells were analyzed 16-18 hr later. Data shown were pooled from three independent experiments. FIGS. 7A-7C: Expression of CD25 and CD69 on gated CD3^+tetramer^+ cells. Representative flow cytometry plots and pooled data showing fold change of CD25 and CD69 surface expression compared to NKT cells isolated from mice transferred with LPS-pulsed BMDCs. FIGS. 7D and 7E provide representative flow cytometry plots and pooled data, respectively, of intracellular IFN-γ expression on gated CD3^+ tetramer^+ cells. FIG. 7F presents serum IFN-γ levels.
# For in vivo activation of NKT cells, C57BL/6 female mice aged 6-12 weeks purchased from Jackson Laboratory (Bar Harbor, Me.) were used. Mice were housed under specific pathogen-free conditions at the University of California, San Francisco Animal Barrier Facility and experiments were approved by the Institutional Animal Care and Use Committee of the University of California, San Francisco.
# Mice were sacrificed 16-18 hr after transfer of 0.4×10^6 mature CD86^hiMHCII^hi BMDCs. Livers were cut into small pieces and passed through a stainless mesh. Cells were resuspended in 40% Percoll solution (GE Healthcare), underlaid with 60% Percoll solution and centrifuged at 2300 rpm for 20 min at room temperature. All isolations were performed in the presence of brefeldin A. After cell surface staining, cells were fixed in Cytofix/Cytoperm (BD Biosciences) according to the manufacturer's instructions and stained for intracellular cytokines Serum IFN-γ was measured by ELISA.
# As described in Example 5, bone marrow progenitors were cultured in IMDM containing 10% FBS with addition of 20 ng/ml GM-CSF (G6 supernatant, a gift from Dr. Abul K. Abbas, University of California at San Francisco, San Francisco, Calif.) starting on day 2 and 1 ng/ml IL-4 (13L6 supernatant, a gift from Dr. Abul K. Abbas) on day 6. For in vivo transfers, BMDCs were pulsed with 1 ng/mL LPS (Escherichia coli O26:B6; Sigma-Aldrich)+/−10 μg/mL α-GalCerBf on day 8. After overnight culture, cells were harvested and washed twice before use.
# As described herein, because α-GalCerBf is an agonist of NKT cell hybridomas and freshly isolated NKT cells in culture, the capability of α-GalCerBf to activate NKT cells in vivo was determined. […] Mice were immunized with BMDCs pulsed with LPS alone or LPS+α-GalCerBf.
# [1] = biological target: T1, Mouse CD1d (mCD1d) tetramer / TCR of NKT cell hybridomas (Mus musculus, UniProt P11609); experiment: Staining of NKT cell hybridomas with sphingolipid-loaded mCD1d tetramers (flow cytometry); type: binding; conditions: mCD1d tetramer loaded with the sphingolipid
# T1 construct: purchased NIH Tetramer Core Facility
# T1 sequence (P11609 19-297 limits assumed): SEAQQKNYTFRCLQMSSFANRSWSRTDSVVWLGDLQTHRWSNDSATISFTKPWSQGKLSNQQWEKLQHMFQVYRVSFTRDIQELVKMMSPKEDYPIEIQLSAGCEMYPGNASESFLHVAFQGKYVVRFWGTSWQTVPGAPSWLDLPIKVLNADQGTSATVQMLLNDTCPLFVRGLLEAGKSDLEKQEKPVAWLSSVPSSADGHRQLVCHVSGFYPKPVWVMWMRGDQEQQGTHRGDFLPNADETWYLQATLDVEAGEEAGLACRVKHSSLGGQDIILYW
# T1 sequence (P01887 21-119 partner): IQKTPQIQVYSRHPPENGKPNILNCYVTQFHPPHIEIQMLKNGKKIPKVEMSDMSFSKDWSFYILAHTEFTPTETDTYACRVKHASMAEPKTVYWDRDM
# Protocol: (§1) FIGS. 4A-4C illustrate that α-GalCerBf binds CD1d and activates murine NKT cells in vitro. FIG. 4A: NKT cell hybridomas (see Example 4) were stained with anti-CD3 antibodies, and empty mCD1d tetramers or CD1d tetramers were loaded with α-GalCerBf or KRN7000. Flow cytometry plots representative of three independent experiments are shown. FIG. 4B: Hybridomas were cultured with BMDCs (bone marrow-derived dendritic cells) pre-pulsed with LPS or LPS+α-GalCerBf in the presence of control Ig or anti-CD1d blocking antibodies. IL-2 secretion was measured in supernatants 16 hr later. Data are representative of three independent experiments. FIG. 4C: Liver mononuclear cells were cultured with splenocytes plus increasing amounts of α-GalCerBf in the presence or absence of anti-CD1d blocking antibodies. IFN-γ secretion was measured in supernatants on day 5. Data are representative of three independent experiments.
# The reagents used in Examples 4 and 5 for the immunology studies were as follows. PBS-57 loaded mCDld tetramers, which were used for mouse experiments, and unloaded mCD1d monomers were obtained from the NIH Tetramer Core Facility. For loading, monomers were incubated with KRN7000 or α-GalCerBf diluted in DMSO at 6 fold molar excess at 37° C. for 3 hrs in the presence of pepstatin, leupeptin, EDTA and TWEEN 20. Samples were concentrated using a 30K microconcentrator. Monomers were tetramerized by incubation with streptavidin-conjugated allophycocyanin (APC) (Molecular Probes, Inc., Eugene, Oreg.) at a 1:1 ratio. Staining was performed at room temperature for 1 hr. […] Viability was determined by staining cells with LIVE/DEAD fixable Aqua stain (Invitrogen Life Technologies, Carlsbad, Calif.) per manufacturer's instructions. […]
# Synthetic CD1d tetramers were loaded with each sphingolipid, KRN7000 and α-GalCerBf), and the capability of the sphingolipid/CD1d-tetramer complex (hereafter called ‘tetramer’) to stain three NKT-cell-derived hybridomas was determined (see, e.g., Brossay et al., J. Immunol. […]
# [2] = tested on: human Vα24+ cell lines (NKT cells); experiment: IFN-γ secretion by restimulated human Vα24+ NKT cell lines; type: cell-based
# [3] = tested on: Mouse liver mononuclear cells (NKT cells); experiment: IFN-γ production by mouse liver mononuclear cells cultured with splenocytes; type: cell-based
# NKT cell hybridomas = experiment: IL-2 production by NKT cell hybridomas cultured with BMDCs (ELISA); type: cell-based, mouse
# Protocol: as §1
# BMDCs and NKT hybridomas were cultured at a 3:1 hybridoma:BMDC ratio and the indicated doses of KRN7000 or α-GalCerBf in the presence of 1 μg/ml LPS. Supernatants were harvested after 24 hrs, and IL-2 production was measured by ELISA. […]
# NKT hybridomas were stimulated in dose titration experiments. […] Supernatants were harvested after 24 hr, and IL-2 production was measured by ELISA. […] Supernatants were harvested after 16-18 hr and IL-2 production was measured by ELISA.
# [4] = tested on: Peripheral blood mononuclear cells (PBMCs), CD3+Vα24+ NKT cells; experiment: In vitro expansion of CD3+Vα24+ NKT cells from human PBMCs; type: cell-based; conditions: 13 days; 0.1 μg/ml KRN7000, 1 μg/ml α-GalCerBf, 1 μg/ml ceramideBf
# Protocol: FIGS. 6A and 6B illustrate that α-GalCerBf binds human CD1d and activates human NKT cells in vitro. FIG. 6A: PBMCs were cultured for 13 days with 0.1 μg/mlKRN7000, 1 μg/ml α-GalCerBf, or 1 μg/ml ceramideBf. Dot plots show CD3^+Vα24^+NKT cells pre- and post-expansion. The data shown are representative of at least two individual experiments performed with six individual donors. FIG. 6B: Human NKT cells were purified after two rounds of expansion with 1 μg/ml α-GalCerBf and restimulated with 10 μg/ml α-GalCerBf in the presence or absence of control Ig or anti-Cd1d blocking antibodies. IFN-γ secretion was measured in supernatants 40-48 hours later. Data are representative of two independent experiments.
# The capability of α-GalCerBf to stimulate freshly isolated NKT cells was determined. A first experiment was performed to determine whether Vα24^+ cells could be expanded in vitro with α-GalCerBf as previously described for KRN7000 (see, e.g., Rogers et al., J. Immunol. Meth. 285:197-214 (2004)). Peripheral blood mononuclear cells (PBMCs) were cultured with 0.1 μg/ml KRN7000, 1 μg/ml α-GalCerBf, or 1 μg/ml ceramideBf for 13 days. The presence of CD3 Vα24^+ cells was then assessed by flow cytometry. At least two individual experiments performed with six individual donors. […] IFN-γ secretion was measured in supernatants 40-48 hours later.
# [5] = BMDCs pulsed with LPS+10 μg/mL α-GalCerBf vs LPS alone, 16-18 hr after transfer
structure (smiles),measurement,setting,value
CC(C)CCCCCCCCCCC[C@@H](O)CC(=O)N[C@@H](CO[C@H]1OC(CO)[C@H](O)[C@H](O)C1O)[C@H](O)CCCCCCCCCCCC(C)C (stereo partly drawn) [α-GalCerBf],CD25 cell surface expression on liver NKT cells,liver NKT cells; [5],upregulation
same,CD69 cell surface expression on liver NKT cells,liver NKT cells; [5],upregulation
same,Liver NKT cell activation and IFN-γ production after anti-CD1d blocking antibodies,liver NKT cells; anti-CD1d antibodies administered prior to BMDC transfer,inhibited
same,Serum IFN-γ levels,liver NKT cells; mice given BMDCs pulsed with α-GalCerBf,Elevated
same,MFI (Median Fluorescence Intensity) of tetramer staining,[1]; DN3A4-1.2 (1.2) hybridoma,460
same,MFI (Median Fluorescence Intensity) of tetramer staining,[1]; DN3A4-1.4 (1.4) hybridoma,626
same,MFI (Median Fluorescence Intensity) of tetramer staining,[1]; N38-2C12 (2C12) hybridoma,2871
same,IFN-γ production,"[2]; cells expanded with 1 μg/ml, restimulated with 10 μg/ml α-GalCerBf, 40-48 hours",induced IFN-γ production
same,IFN-γ production with anti-CD1d blocking antibodies,[2]; co-culture with anti-CD1d blocking antibodies,inhibited
same,IFN-γ response in the presence of anti-CD1d antibodies,[3]; anti-CD1d blocking antibodies,inhibited
same,IFN-γ production,"[3]; increasing doses, splenocytes as APCs, supernatants day 5",induced IFN-γ in a dose-dependent manner
same,IL-2 production by control hybridoma,NKT cell hybridomas; CD4 MHCII restricted hybridoma reactive to GFP,did not stimulate
same,IL-2 response in the presence of anti-CD1d antibodies,"NKT cell hybridomas; pulsed BMDCs, 10 μg/mL anti-CD1d antibody, 16-18 hr",completely inhibited
same,Expansion of a population of CD3+Vα24+ cells,[4],showed an expansion
